Earlier results in patent US20110092579A1, “Solubilized formulation of docetaxel” (Scidose LLC, priority 2009, published 2011).

- Solubility in water: practically insoluble in water
Compound: CC(=O)O[C@@]12CO[C@@H]1C[C@H](O)[C@@]1(C)C(=O)[C@H](O)C3=C(C)[C@@H](OC(=O)[C@H](O)[C@@H](NC(=O)OC(C)(C)C)c4ccccc4)C[C@@](O)([C@@H](OC(=O)c4ccccc4)[C@H]21)C3(C)C [docetaxel, (2R,3S)-N-carboxy-3-phenylisoserine, N-tert-butyl ester, 13-ester with 5beta-20-epoxy-1,2α,4,7β,10β,13α-hexahydroxytax-11-en-9-one 4-acetate 2-benzoate, trihydrate]
